Results taken from publication PMC1950686.
These are yes or no findings as the source states them, for the method shown. In cells and extracts the contact can be indirect. Some results given as binding are weak or reduced against the parent protein; the word gives no strength.

Sequences of proteins named here, by UniProt entry; tags and fusion partners are left off.
UniProt Q13950: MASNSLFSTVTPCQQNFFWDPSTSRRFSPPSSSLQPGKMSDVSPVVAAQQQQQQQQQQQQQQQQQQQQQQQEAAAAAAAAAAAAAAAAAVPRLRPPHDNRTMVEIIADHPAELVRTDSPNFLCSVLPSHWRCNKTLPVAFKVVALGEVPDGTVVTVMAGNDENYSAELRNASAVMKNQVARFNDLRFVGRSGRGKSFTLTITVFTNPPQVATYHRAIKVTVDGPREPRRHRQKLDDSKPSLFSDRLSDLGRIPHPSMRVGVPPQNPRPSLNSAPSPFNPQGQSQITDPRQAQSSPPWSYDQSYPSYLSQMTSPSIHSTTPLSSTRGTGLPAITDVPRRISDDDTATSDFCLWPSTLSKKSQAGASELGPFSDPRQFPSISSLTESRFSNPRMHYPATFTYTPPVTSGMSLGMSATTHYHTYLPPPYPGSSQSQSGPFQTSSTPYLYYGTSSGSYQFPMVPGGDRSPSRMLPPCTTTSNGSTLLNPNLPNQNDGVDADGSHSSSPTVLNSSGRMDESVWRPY
UniProt P49841: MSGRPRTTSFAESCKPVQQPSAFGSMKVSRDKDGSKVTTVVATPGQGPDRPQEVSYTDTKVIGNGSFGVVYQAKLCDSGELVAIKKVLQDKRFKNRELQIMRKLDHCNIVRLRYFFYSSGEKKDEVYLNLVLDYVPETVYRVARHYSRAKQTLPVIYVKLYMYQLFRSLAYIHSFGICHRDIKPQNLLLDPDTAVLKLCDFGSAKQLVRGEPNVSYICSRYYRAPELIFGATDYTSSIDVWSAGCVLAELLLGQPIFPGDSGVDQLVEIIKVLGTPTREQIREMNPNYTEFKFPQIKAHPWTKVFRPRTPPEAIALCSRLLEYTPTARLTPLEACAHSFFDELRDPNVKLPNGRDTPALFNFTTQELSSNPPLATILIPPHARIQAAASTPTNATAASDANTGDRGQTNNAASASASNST

Biological target: 3X FLAG-RUNX2 (UniProt Q13950)
Assay: co-IP; 293T cells transfected with 3X FLAG-RUNX2 and/or HA-GSK-3β, RIPA lysate; precipitated with anti-FLAG M2 affinity gel and blotted for HA (Fig. 4C), and in reverse with the HA Tag IP/Co-IP kit and blotted for FLAG, IgG as negative control (Fig. 4D)

binding: binds
Substance: HA-GSK-3β (from UniProt P49841 1-420) (enzyme)
